Test results: PubChem BioAssay AID1487 (National Center for Advancing Translational Sciences (NCATS), 2009)
Some of the results follow. These are further read-outs of the screen, such as a control signal, another cell line or another target. No call is given for them. Compounds called inactive in the main read-out are mostly missing here. Words in brackets tell the shape of the fitted curve; partial curves, single points and poor fits give uncertain potencies.

Test: qHTS Assay for Modulators of Lamin A Splicing
Settings: HeLa LMNA splicing GFP/RFP minigene ratio, 48 h
How it was run: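 S3 HeLa cells stably expressing lamin A-EGFP splicing minigene plus DsRed2, 600 cells/well, 48 h compound exposure at 37C. Laser-scanning cytometry; analysed as GFP (500-530 nm)/RFP (575-640 nm) total intensity ratio; 0.5% DMSO vehicle.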

[1] = measured here: RFP viability control channel
[2] = measured here: GFP splicing reporter channel

In the case of `CCN(CC)S(=O)(=O)c1ccc(/C=C/C(=O)Nc2ccc(Br)cc2F)cc1`, the AC50 [1] was 3.55 µM [rising, full curve].
For `O=C(CCCn1c(=O)[nH]c2ccsc2c1=O)Nc1ccc(F)cc1`, the AC50 [2] was 1.12 µM [falling, full curve, poor fit] and the AC50 [1] was 0.00398 µM [falling, full curve].
For `CCc1ccc(OCC(=O)Nc2cccc3c2CCCC3)cc1`, the AC50 [1] was 11.2 µM [rising, single point].
With `O=c1[nH]c(CSc2ncnc3sc(-c4ccccc4)cc23)nc2ccccc12` the AC50 [2] was 0.794 µM [falling, partial curve] and the AC50 [1] was 1.58 µM [falling, partial curve].
In the case of `CCc1c(C(=O)N/N=C/c2cn[nH]c2-c2ccc(F)cc2)csc1C`, the AC50 [2] was 14.1 µM [rising, partial curve, poor fit] and the AC50 [1] was 7.08 µM [rising, partial curve, poor fit].
In the case of `c1ccc(Nc2nc(-c3ccoc3)nc3ccccc23)cc1`, the AC50 [2] was 11.2 µM [falling, partial curve] and the AC50 [1] was 15.8 µM [falling, single point].
In the case of `CCOc1ccc(-c2nnc(SCC(=O)NC3CCCCC3)nc2-c2ccc(OCC)cc2)cc1`, the AC50 [1] was 0.02 µM [rising, full curve, poor fit].
In the case of `C=CCn1c(Cc2cccc3ccccc23)n[nH]c1=S`, the AC50 [2] was 12.6 µM [rising, partial curve, poor fit] and the AC50 [1] was 10 µM [rising, partial curve].
In the case of `Cc1ccc(-c2nc3cc(NC(=O)C(C)C)ccc3o2)cc1C`, the AC50 [1] was 22.4 µM [rising, partial curve].
For `Clc1ccc(Cn2c(CN3CCCC3)nc3ccccc32)cc1`, the AC50 [2] was 0.355 µM [falling, full curve, poor fit] and the AC50 [1] was 0.158 µM [falling, full curve].
With `CCn1c(SCC(=O)NCc2ccc(F)cc2)nc2c(c1=O)SC(C)C2` (stereo not drawn) the AC50 [1] was 0.0355 µM [rising, full curve, poor fit].
For `CCOC(=O)N1CCN(CC(O)COc2ccccc2C(C)CC)CC1` (stereo not drawn), the AC50 [1] was 0.316 µM [rising, full curve, poor fit].
In the case of `COc1ccc2cc(Br)ccc2c1CC(=O)NC(C)C`, the AC50 [1] was 15.8 µM [falling, single point].
For `O=C(C1CCCN(S(=O)(=O)Cc2ccccc2)C1)N1CCC(Cc2ccccc2)CC1` (stereo not drawn), the AC50 [2] was 17.8 µM [rising, single point] and the AC50 [1] was 15.8 µM [rising, single point].
For `CCOC(=O)c1c(NC(=O)CCN2CCOCC2)sc(C)c1-c1ccccc1`, the AC50 [2] was 15.8 µM [falling, single point] and the AC50 [1] was 12.6 µM [falling, partial curve].
